In PubChem BioAssay AID248 (DTP/NCI, 2004):
The list is a part of this screen's results and no random one: it gathers tests that were run many times, whatever their T/C, doses with no T/C, and many T/C values between a quarter and a half above the control. Further doses and runs are listed elsewhere. T/C: endpoint of the treated group in % of that of the vehicle group. Some doses have a count of surviving animals in place of a T/C: the source holds a T/C of zero for them, seemingly a mark for toxic or unscored doses. Some survivor counts are full or nearly so, which does not show that the dose was tolerated: the source hardly ever lists a survival T/C far under the control, and the zero likely stands for such cases as well. Counts of survivors are from the toxicity check (mostly the fifth day) where no day follows; animals may have died later. Schedule codes are those of the source, read here as Q, the interval in days (D) or hours (H), X, the number of doses. Counts like (3×) count equal records among those shown. Some entries were tested several times; the results are listed from low to high. Where survival is the endpoint, the PubChem record calls one and a half times the control and up active, and a quarter to a half above the control has no call in these data; cut-offs in other NCI protocols can differ.

Tested on: L1210 leukemia ip in BDF1 mice, survival T/C
Test: NCI In Vivo Anticancer Drug Screen. Data for tumor model L1210 Leukemia (intraperitoneal) in B6D2F1 (BDF1) mice
Settings: T/C endpoint: mean survival time, higher T/C = longer survival
[1] = dose: 40.0 mg/kg/injection, schedule: Q01DX001 (ip), vehicle: saline
[2] = dose: 80.0 mg/kg/injection, schedule: Q01DX001 (ip), vehicle: saline
[3] = dose: 100.0 mg/kg/injection, schedule: Q04DX003 (ip), vehicle: Klucel (hydroxypropylcellulose) (HPC)
[4] = dose: 200.0 mg/kg/injection, schedule: Q04DX003 (ip), vehicle: Klucel (hydroxypropylcellulose) (HPC)
[5] = dose: 400.0 mg/kg/injection, schedule: Q04DX003 (ip), vehicle: Klucel (hydroxypropylcellulose) (HPC)
[6] = dose: 400.0 mg/kg/injection, schedule: Q01DX009 (ip), vehicle: saline

CSc1ccccc1N.[Cl][Cu][Cl]
survivor count (dose: 20.0 mg/kg/injection, schedule: Q01DX001 (ip), vehicle: saline): 2 of 4 | survivor count [1]: 0 of 4 | survivor count (dose: 50.0 mg/kg/injection, schedule: Q01DX001 (ip), vehicle: saline): 0 of 4 | survivor count [2]: 0 of 4 | survivor count (dose: 100.0 mg/kg/injection, schedule: Q01DX001 (ip), vehicle: saline): 0 of 4 | survivor count (dose: 200.0 mg/kg/injection, schedule: Q01DX001 (ip), vehicle: saline): 0 of 4 | survivor count (dose: 400.0 mg/kg/injection, schedule: Q01DX001 (ip), vehicle: saline): 0 of 4

CN(C(=O)Cl)c1ccccc1
survivor count [3]: 3 of 6 | survivor count [4]: 1 of 6 | survivor count [5]: 0 of 6

CC[n+]1ccc(C)c2ccccc21
survivor count (dose: 100.0 mg/kg/injection, schedule: Q04DX002 (ip), vehicle: saline): 1 of 3 and 5 of 6 | survivor count (dose: 200.0 mg/kg/injection, schedule: Q04DX002 (ip), vehicle: saline): 1 of 6 and 1 of 3 | survivor count (dose: 400.0 mg/kg/injection, schedule: Q04DX002 (ip), vehicle: saline): 0 of 3 and 0 of 6

CCCCCCCCC(=O)CCCCC
survivor count [6]: 6 of 6

CC1CCC2N(C1)CC1C3(O)CC4(O)C(CCC5C(=O)C(O)CCC54C)C3(O)CC(O)C1(O)C2(C)O (centres undefined)
survivor count [1]: 3 of 6 | survivor count [2]: 0 of 6

N#CC1CS(=O)(=O)C1
survivor count [6]: 3 of 6

O=C1CCN(Cl)C(=O)N1Cl
survivor count [1]: 2 of 6 | survivor count [2]: 0 of 6

CC(C)(C)NC(=O)C1CC2(C)CCC1C2(C)C (centres undefined)
T/C (dose: 300.0 mg/kg/injection, schedule: Q01DX001 (ip), vehicle: other): 126 % of control

CCOC(=O)/C(C#N)=N\O
survivor count (dose: 200.0 mg/kg/injection, schedule: Q01DX009 (ip), vehicle: saline): 0 of 6 | survivor count (dose: 200.0 mg/kg/injection, schedule: Q04DX003 (ip), vehicle: saline): 0 of 6 | survivor count (dose: 400.0 mg/kg/injection, schedule: Q04DX003 (ip), vehicle: saline): 0 of 6

C#CCOP(=O)(OCC)OCC
survivor count [6]: 2 of 6

O=CN1CCCC1C(=O)O (centres undefined)
survivor count (dose: 400.0 mg/kg/injection, schedule: Q01DX009 (ip), vehicle: water): 0 of 6

CC(CCC(C)OS(C)(=O)=O)OS(C)(=O)=O (centres undefined)
survivor count (dose: 4.0 mg/kg/injection, schedule: Q01DX010 (ip), vehicle: saline): 6 of 6 | survivor count (dose: 50.0 mg/kg/injection, schedule: Q01DX009 (ip), vehicle: Klucel (hydroxypropylcellulose) (HPC)): 3 of 3 | survivor count (dose: 50.0 mg/kg/injection, schedule: Q04DX002 (ip), vehicle: Klucel (hydroxypropylcellulose) (HPC)): 3 of 3 | survivor count (dose: 100.0 mg/kg/injection, schedule: Q01DX009 (ip), vehicle: Klucel (hydroxypropylcellulose) (HPC)): 3 of 3 | survivor count (dose: 100.0 mg/kg/injection, schedule: Q04DX002 (ip), vehicle: Klucel (hydroxypropylcellulose) (HPC)): 3 of 3 | survivor count [3]: 6 of 6 (2×) | survivor count (dose: 200.0 mg/kg/injection, schedule: Q01DX009 (ip), vehicle: Klucel (hydroxypropylcellulose) (HPC)): 3 of 3 | survivor count [4]: 6 of 6 (2×) | survivor count [5]: 6 of 6 (2×)

Br[CH2][Sn]([Br])([Br])[CH2]Br
survivor count (dose: 100.0 mg/kg/injection, schedule: Q04DX002 (ip), vehicle: saline with Tween-80): 0 of 3 | survivor count (dose: 200.0 mg/kg/injection, schedule: Q04DX002 (ip), vehicle: saline with Tween-80): 0 of 3 | survivor count (dose: 400.0 mg/kg/injection, schedule: Q04DX002 (ip), vehicle: saline with Tween-80): 0 of 3

CC(C)c1ccc(C(O)C2CC2)cc1 (centres undefined)
survivor count (dose: 200.0 mg/kg/injection, schedule: Q04DX003 (ip), vehicle: saline with Tween-80): 6 of 6 | survivor count (dose: 400.0 mg/kg/injection, schedule: Q04DX003 (ip), vehicle: saline with Tween-80): 0 of 6
